Source: PubChem BioAssay AID652243 (Drosophila RNAi Screening Center, 2013)

Screen: 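Fly genes required for human androgen receptor driven transcription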 (primary screen)
Cells: Drosophila S2R+ cells
Reagent: long dsRNA against Drosophila genes
Timing: 72 h (48 h, then 24 h hormone)
Challenge: synthetic androgen R1881 at 10 nM for 24 h
Measurement: 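Per-well raw luminescence of the androgen-driven firefly reporter and of the Renilla control, two replicates each, without normalisation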
Scale: firefly reporter light: higher = more light from androgen-responsive reporter; Renilla control light: higher = more constitutive control signal (cell number, transfection)
Hit rule: 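Across duplicate plates, a knock-down whose log firefly/Renilla ratio shifted a set fold down or up from the GFP/LacZ control mean was a hit; the downward cut appears as both 1.5 and 3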
Meaning of the calls: active = hit: reporter lowered or raised; inactive = no hit
The deposit covers about 24,000 reagents; this is an unselected part of those with a known target gene and a result. Over the whole deposit, 246 (1%) are marked active. 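Plates not normalised; calls are printed but the firefly/Renilla ratio behind them is not deposited; fold cut for lowering reported inconsistently.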 Raw values are not corrected between plates. Reagent sequences are not shown. Not stated in the record: the amount of reagent.

predicted target	dsRNA	firefly reporter light, replicate 1	firefly reporter light, replicate 2	Renilla control light, replicate 1	Renilla control light, replicate 2	call
CG14054	DRSC17909	4.99e5	4.43e5	5.38e6	3.76e6	inactive
Alp6	DRSC06710	9.90e5	1.05e6	1.63e6	2.05e6	inactive
Alp6	DRSC36858					inactive
CG8661	DRSC20115	3.92e5	4.19e5	2.90e6	1.97e6	inactive
CG8661	DRSC29778	6.15e5	6.25e5	1.59e6	1.75e6	inactive
mask	DRSC15370	1.41e5	1.40e5	1.60e6	1.41e6	inactive
mask	DRSC16005	75217	87494	4.18e5	4.28e5	inactive
mask	DRSC16018	91295	92783	4.98e5	5.27e5	inactive
mask	DRSC25063	3.14e5	3.43e5	3.70e5	3.34e5	inactive
CG31538	DRSC12059	67705	2.22e5	2.82e5	5.63e5	inactive
CG7824	DRSC16321	1.42e5	1.54e5	1.75e6	2.28e6	inactive
CG3868	DRSC10380	1.03e6	1.02e6	1.44e6	1.57e6	inactive
Gr28a	DRSC02290	1.97e5	1.88e5	1.60e6	1.35e6	inactive
Hat1	DRSC12298	33128	30177	1.17e6	7.66e5	inactive
Hat1	DRSC29235	8.41e5	8.69e5	1.33e6	1.36e6	inactive
Ugt49B1	DRSC04461	3.00e5	2.73e5	1.80e6	1.70e6	inactive
Ugt49B1	DRSC26568	3.32e5	2.58e5	8.45e5	8.14e5	inactive
CG13047	DRSC09928	2.79e5	2.14e5	2.93e6	1.70e6	inactive
CG13047	DRSC25091	9.28e5	1.06e6	1.27e6	1.43e6	inactive
chico	DRSC03531	6.30e5	5.47e5	1.38e6	1.22e6	inactive
Jon65Aii	DRSC10665	2.47e5	2.92e5	1.85e6	2.02e6	inactive
apn	DRSC15124	1.41e5	1.19e5	2.02e6	1.95e6	inactive
Taf3	DRSC17170	56848	56185	5.34e5	3.28e5	inactive
Taf3	DRSC29650	4.21e5	4.81e5	7.73e5	7.73e5	inactive
CG3631	DRSC15503	76676	84640	5.51e5	5.68e5	inactive
CG3631	DRSC29768	3.19e5	4.17e5	9.60e5	1.35e6	inactive
Ntf-2r	DRSC02019	2.42e5	1.91e5	1.04e6	1.06e6	inactive
Nep1	DRSC18388	95232	96197	5.98e5	6.31e5	inactive
Nep1	DRSC26208	2.32e5	2.55e5	5.63e5	6.96e5	inactive
CG31199	DRSC15284	1.06e5	1.43e5	6.83e5	1.07e6	inactive
Hs3st-B	DRSC20067	50029	52784	1.49e5	1.30e5	inactive
CG11668	DRSC14341	1.47e5	1.91e5	2.36e6	2.96e6	inactive
CG5850	DRSC02905	6.46e5	9.40e5	1.33e6	1.70e6	inactive
CG31913	DRSC00892	1.24e5	67505	3.97e5	3.20e5	inactive
CG31913	DRSC27532	1.61e5	1.72e5	6.16e5	7.26e5	inactive
Nrk	DRSC07480	2.61e5	1.51e5	1.46e6	1.47e6	inactive
Nrk	DRSC36725					inactive
Nrk	DRSC36726					inactive
Pih1D1	DRSC02897	7.16e5	7.80e5	2.28e6	1.95e6	inactive
Pih1D1	DRSC28212	7.11e5	1.32e6	1.24e6	1.71e6	inactive
